Measured values reported in the supplement of paper PMC4635364.
Structures can show the parent of a compound that is named as a salt. This is one part of the list. Repeats in this data set agree poorly, so a single value says little.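 Cells: ReNCell VM human fetal ventral-midbrain neural progenitors, differentiated mitogen-free. Blinded raters compared doublecortin-stained (early neurons) or tyrosine hydroxylase-stained (dopaminergic neurons) images with untreated wells, where 0 means no change. After repeats and both raters were averaged, compounds scoring 2 or above became hits for retesting.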

Legend:
ReNCell VM [1] = test: neuronal differentiation score (DCX+ cell fraction vs untreated, manual image score) (score (-3 to 3)); higher = more neuronal differentiation; settings: 2 uM, 2 weeks
ReNCell VM [2] = test: dopaminergic neuron differentiation score (TH+ cell fraction vs untreated, manual image score) (score (0 to 3)); higher = more TH+ dopaminergic neuron differentiation; settings: 2 uM, 4 weeks, BDNF 10 ng/ml + GDNF 10 ng/ml

## COC(=O)[C@H](NC(=O)c1cc(-c2ccccc2)nc2ccccc12)c1ccccc1
ReNCell VM [1]; library: LOPAC
  neuronal differentiation score: inactive: 0
ReNCell VM [1]; library: Tocriscreen
  neuronal differentiation score: inactive: 0
ReNCell VM [2]; library: LOPAC
  dopaminergic neuron differentiation score: inactive: 0
ReNCell VM [2]; library: Tocriscreen
  dopaminergic neuron differentiation score: inactive: 0

## NC[C@@H]1O[C@H](O[C@H]2[C@@H](O)[C@H](O[C@@H]3[C@@H](O)[C@H](N)C[C@H](N)[C@H]3O[C@H]3O[C@H](CO)[C@@H](O)[C@H](O)[C@H]3N)O[C@@H]2CO)[C@H](N)[C@@H](O)[C@@H]1O [Paromomycin sulfate]
ReNCell VM [1]; library: LOPAC
  neuronal differentiation score: inactive: 0
ReNCell VM [1]; library: Prestwick
  neuronal differentiation score: inactive: 0
ReNCell VM [2]; library: LOPAC
  dopaminergic neuron differentiation score: inactive: 0
ReNCell VM [2]; library: Prestwick
  dopaminergic neuron differentiation score: inactive: 0

## CCN(CC)CCNC(=O)c1ccc(N)cc1 [Procainamide hydrochloride]
ReNCell VM [1]; library: LOPAC
  neuronal differentiation score: inactive: 0
ReNCell VM [1]; library: Prestwick
  neuronal differentiation score: inactive: 0
ReNCell VM [2]; library: LOPAC
  dopaminergic neuron differentiation score: inactive: 0
ReNCell VM [2]; library: Prestwick
  dopaminergic neuron differentiation score: inactive: 0

## O=C1C(SCCO)=C(SCCO)C(=O)c2ccccc21
ReNCell VM [1]; library: LOPAC
  neuronal differentiation score: inactive: 0
ReNCell VM [1]; library: Tocriscreen
  neuronal differentiation score: inactive: 0
ReNCell VM [2]; library: LOPAC
  dopaminergic neuron differentiation score: inactive: 0
ReNCell VM [2]; library: Tocriscreen
  dopaminergic neuron differentiation score: inactive: 0

## O=C1CCC(N2C(=O)c3ccccc3C2=O)C(=O)N1 (stereo not given) [Thalidomide]
ReNCell VM [1]; library: Prestwick
  neuronal differentiation score: inactive: 0
ReNCell VM [1]; library: Tocriscreen
  neuronal differentiation score: inactive: 0
ReNCell VM [2]; library: Prestwick
  dopaminergic neuron differentiation score: inactive: 0
ReNCell VM [2]; library: Tocriscreen
  dopaminergic neuron differentiation score: inactive: 0

## Oc1ncnc2[nH]ncc12 [Allopurinol]
ReNCell VM [1]; library: LOPAC
  neuronal differentiation score: inactive: 0
ReNCell VM [1]; library: Prestwick
  neuronal differentiation score: inactive: 0
ReNCell VM [2]; library: LOPAC
  dopaminergic neuron differentiation score: inactive: 0
ReNCell VM [2]; library: Prestwick
  dopaminergic neuron differentiation score: inactive: 0

## C[C@H]1O[C@H](O[C@H]2[C@H](O)[C@@H](O)[C@@H](O[C@H]3[C@H](O)[C@@H](O)C(O)O[C@@H]3CO)O[C@@H]2CO)[C@H](O)[C@@H](O)[C@@H]1N[C@H]1C=C(CO)[C@@H](O)[C@H](O)[C@H]1O (stereo not given in full) [Acarbose]
ReNCell VM [1]; library: Prestwick
  neuronal differentiation score: inactive: 0
ReNCell VM [1]; library: Tocriscreen
  neuronal differentiation score: inactive: 0
ReNCell VM [2]; library: Prestwick
  dopaminergic neuron differentiation score: inactive: 0
ReNCell VM [2]; library: Tocriscreen
  dopaminergic neuron differentiation score: inactive: 0

## CCn1nc(C(=O)O)c(=O)c2cc3c(cc21)OCO3 [Cinoxacin]
ReNCell VM [1]; library: LOPAC
  neuronal differentiation score: inactive: 1
ReNCell VM [1]; library: Prestwick
  neuronal differentiation score: inactive: 0
ReNCell VM [2]; library: LOPAC
  dopaminergic neuron differentiation score: active: 3
ReNCell VM [2]; library: Prestwick
  dopaminergic neuron differentiation score: inactive: 0

## CN(C)CCCCSC(=N)N
ReNCell VM [1]; library: LOPAC
  neuronal differentiation score: inactive: 0
ReNCell VM [1]; library: Tocriscreen
  neuronal differentiation score: inactive: 0
ReNCell VM [2]; library: LOPAC
  dopaminergic neuron differentiation score: inactive: 0
ReNCell VM [2]; library: Tocriscreen
  dopaminergic neuron differentiation score: inactive: 0

## COc1ccc(Cl)cc1C(=O)NCCc1ccc(S(=O)(=O)NC(=O)NC2CCCCC2)cc1 [Glibenclamide]
ReNCell VM [1]; library: Prestwick
  neuronal differentiation score: inactive: 0
ReNCell VM [1]; library: Tocriscreen
  neuronal differentiation score: inactive: 0
ReNCell VM [2]; library: Prestwick
  dopaminergic neuron differentiation score: inactive: 0
ReNCell VM [2]; library: Tocriscreen
  dopaminergic neuron differentiation score: inactive: 0

## CC(C)COCC(CN(Cc1ccccc1)c1ccccc1)N1CCCC1 (stereo not given) [Bepridil hydrochloride]
ReNCell VM [1]; library: LOPAC
  neuronal differentiation score: inactive: 0
ReNCell VM [1]; library: Prestwick
  neuronal differentiation score: inactive: 0
ReNCell VM [2]; library: LOPAC
  dopaminergic neuron differentiation score: inactive: 0
ReNCell VM [2]; library: Prestwick
  dopaminergic neuron differentiation score: inactive: 0

## CC(C)N(CCC(=O)c1ccc2ccccc2c1)Cc1ccccc1
ReNCell VM [1]; library: LOPAC
  neuronal differentiation score: inactive: 0
ReNCell VM [1]; library: Tocriscreen
  neuronal differentiation score: inactive: 0
ReNCell VM [2]; library: LOPAC
  dopaminergic neuron differentiation score: inactive: 0
ReNCell VM [2]; library: Tocriscreen
  dopaminergic neuron differentiation score: inactive: 0

## NC(=O)c1cccnc1 [Nicotinamide]
ReNCell VM [1]; library: Phytochemical
  neuronal differentiation score: inactive: 0
ReNCell VM [1]; library: Prestwick
  neuronal differentiation score: inactive: 0
ReNCell VM [2]; library: Phytochemical
  dopaminergic neuron differentiation score: inactive: 0
ReNCell VM [2]; library: Prestwick
  dopaminergic neuron differentiation score: inactive: 0

## C[C@]12CC[C@@H]3c4ccc(O)cc4C[C@@H](CCCCCCCCC[S+]([O-])CCCC(F)(F)C(F)(F)F)[C@H]3[C@@H]1CC[C@@H]2O (stereo not given in full) [Fulvestrant]
ReNCell VM [1]; library: LOPAC
  neuronal differentiation score: inactive: 0
ReNCell VM [1]; library: Prestwick
  neuronal differentiation score: inactive: 0
ReNCell VM [2]; library: LOPAC
  dopaminergic neuron differentiation score: inactive: 0
ReNCell VM [2]; library: Prestwick
  dopaminergic neuron differentiation score: inactive: 0

## O=C(CCCN1CC=C(n2c(=O)[nH]c3ccccc32)CC1)c1ccc(F)cc1 [Droperidol]
ReNCell VM [1]; library: LOPAC
  neuronal differentiation score: inactive: 0
ReNCell VM [1]; library: Prestwick
  neuronal differentiation score: inactive: 0
ReNCell VM [2]; library: LOPAC
  dopaminergic neuron differentiation score: inactive: 0
ReNCell VM [2]; library: Prestwick
  dopaminergic neuron differentiation score: inactive: 0

## CN1CC(=O)N=C1NC(=O)Nc1cccc(Cl)c1 [Fenobam]
ReNCell VM [1]; library: LOPAC
  neuronal differentiation score: inactive: 0
ReNCell VM [1]; library: Tocriscreen
  neuronal differentiation score: inactive: 0
ReNCell VM [2]; library: LOPAC
  dopaminergic neuron differentiation score: inactive: 0
ReNCell VM [2]; library: Tocriscreen
  dopaminergic neuron differentiation score: inactive: 0

## CC(C)(C(=O)O)c1ccc(C(O)CCCN2CCC(C(O)(c3ccccc3)c3ccccc3)CC2)cc1 (stereo not given) [Fexofenadine hydrochloride]
ReNCell VM [1]; library: LOPAC
  neuronal differentiation score: inactive: -1
ReNCell VM [1]; library: Tocriscreen
  neuronal differentiation score: inactive: 0
ReNCell VM [2]; library: LOPAC
  dopaminergic neuron differentiation score: inactive: 0
ReNCell VM [2]; library: Tocriscreen
  dopaminergic neuron differentiation score: inactive: 0

## CCc1c2c(nc3ccc(OC(=O)N4CCC(N5CCCCC5)CC4)cc13)-c1cc3c(c(=O)n1C2)COC(=O)[C@]3(O)CC
ReNCell VM [1]; library: Spectrum
  neuronal differentiation score: inactive: 0
ReNCell VM [1]; library: Tocriscreen
  neuronal differentiation score: inactive: 0
ReNCell VM [2]; library: Spectrum
  dopaminergic neuron differentiation score: inactive: 0
ReNCell VM [2]; library: Tocriscreen
  dopaminergic neuron differentiation score: inactive: 0

## CN(C)CCCN1c2ccccc2CCc2ccccc21 [Imipramine hydrochloride]
ReNCell VM [1]; library: LOPAC
  neuronal differentiation score: inactive: 0
ReNCell VM [1]; library: Prestwick
  neuronal differentiation score: inactive: 0
ReNCell VM [2]; library: LOPAC
  dopaminergic neuron differentiation score: inactive: 0
ReNCell VM [2]; library: Prestwick
  dopaminergic neuron differentiation score: inactive: 0

## COc1ccc(NC(=O)c2ccc(-c3ccc(-c4noc(C)n4)cc3C)cc2)cc1N1CCN(C)CC1
ReNCell VM [1]; library: LOPAC
  neuronal differentiation score: inactive: 0
ReNCell VM [1]; library: Tocriscreen
  neuronal differentiation score: inactive: 0
ReNCell VM [2]; library: LOPAC
  dopaminergic neuron differentiation score: inactive: 0
ReNCell VM [2]; library: Tocriscreen
  dopaminergic neuron differentiation score: inactive: 0

## COc1ccc([C@@H]2CC(=O)c3c(O)cc(O[C@@H]4O[C@H](CO[C@@H]5O[C@@H](C)[C@H](O)[C@@H](O)[C@H]5O)[C@@H](O)[C@H](O)[C@H]4O)cc3O2)cc1O [Hesperidin]
ReNCell VM [1]; library: Phytochemical
  neuronal differentiation score: inactive: 0
ReNCell VM [1]; library: Prestwick
  neuronal differentiation score: inactive: 0
ReNCell VM [2]; library: Phytochemical
  dopaminergic neuron differentiation score: inactive: 0
ReNCell VM [2]; library: Prestwick
  dopaminergic neuron differentiation score: inactive: 0

## CCCNC(C)C(=O)Nc1ccccc1C (stereo not given) [Prilocaine hydrochloride]
ReNCell VM [1]; library: LOPAC
  neuronal differentiation score: inactive: 0
ReNCell VM [1]; library: Prestwick
  neuronal differentiation score: inactive: 0
ReNCell VM [2]; library: LOPAC
  dopaminergic neuron differentiation score: inactive: 0
ReNCell VM [2]; library: Prestwick
  dopaminergic neuron differentiation score: inactive: 0

## COc1cccc(NC(=O)/C=C/c2ccc(Cl)cc2)c1
ReNCell VM [1]; library: LOPAC
  neuronal differentiation score: inactive: -1
ReNCell VM [1]; library: Tocriscreen
  neuronal differentiation score: inactive: 0
ReNCell VM [2]; library: LOPAC
  dopaminergic neuron differentiation score: inactive: 0
ReNCell VM [2]; library: Tocriscreen
  dopaminergic neuron differentiation score: inactive: 0

## CCOC(=O)[N-]c1c[n+](N2CCOCC2)no1 [Molsidomine]
ReNCell VM [1]; library: LOPAC
  neuronal differentiation score: inactive: 0
ReNCell VM [1]; library: Prestwick
  neuronal differentiation score: inactive: 0
ReNCell VM [2]; library: LOPAC
  dopaminergic neuron differentiation score: inactive: 0
ReNCell VM [2]; library: Prestwick
  dopaminergic neuron differentiation score: inactive: 0

## O=C(O)c1cc(=O)c2c(Cl)cc(Cl)cc2[nH]1 [5,7-Dichlorokynurenic acid]
ReNCell VM [1]; library: LOPAC
  neuronal differentiation score: inactive: 0
ReNCell VM [1]; library: Tocriscreen
  neuronal differentiation score: inactive: 0
ReNCell VM [2]; library: LOPAC
  dopaminergic neuron differentiation score: inactive: 1
ReNCell VM [2]; library: Tocriscreen
  dopaminergic neuron differentiation score: inactive: 1
